Experimental data: article PMC4176181

The chains behind the UniProt entries cited, without tags or fusion partners. Where a name states a change or a piece, a line headed by the entry shows the natural chain unless it says otherwise.
UniProt P54132: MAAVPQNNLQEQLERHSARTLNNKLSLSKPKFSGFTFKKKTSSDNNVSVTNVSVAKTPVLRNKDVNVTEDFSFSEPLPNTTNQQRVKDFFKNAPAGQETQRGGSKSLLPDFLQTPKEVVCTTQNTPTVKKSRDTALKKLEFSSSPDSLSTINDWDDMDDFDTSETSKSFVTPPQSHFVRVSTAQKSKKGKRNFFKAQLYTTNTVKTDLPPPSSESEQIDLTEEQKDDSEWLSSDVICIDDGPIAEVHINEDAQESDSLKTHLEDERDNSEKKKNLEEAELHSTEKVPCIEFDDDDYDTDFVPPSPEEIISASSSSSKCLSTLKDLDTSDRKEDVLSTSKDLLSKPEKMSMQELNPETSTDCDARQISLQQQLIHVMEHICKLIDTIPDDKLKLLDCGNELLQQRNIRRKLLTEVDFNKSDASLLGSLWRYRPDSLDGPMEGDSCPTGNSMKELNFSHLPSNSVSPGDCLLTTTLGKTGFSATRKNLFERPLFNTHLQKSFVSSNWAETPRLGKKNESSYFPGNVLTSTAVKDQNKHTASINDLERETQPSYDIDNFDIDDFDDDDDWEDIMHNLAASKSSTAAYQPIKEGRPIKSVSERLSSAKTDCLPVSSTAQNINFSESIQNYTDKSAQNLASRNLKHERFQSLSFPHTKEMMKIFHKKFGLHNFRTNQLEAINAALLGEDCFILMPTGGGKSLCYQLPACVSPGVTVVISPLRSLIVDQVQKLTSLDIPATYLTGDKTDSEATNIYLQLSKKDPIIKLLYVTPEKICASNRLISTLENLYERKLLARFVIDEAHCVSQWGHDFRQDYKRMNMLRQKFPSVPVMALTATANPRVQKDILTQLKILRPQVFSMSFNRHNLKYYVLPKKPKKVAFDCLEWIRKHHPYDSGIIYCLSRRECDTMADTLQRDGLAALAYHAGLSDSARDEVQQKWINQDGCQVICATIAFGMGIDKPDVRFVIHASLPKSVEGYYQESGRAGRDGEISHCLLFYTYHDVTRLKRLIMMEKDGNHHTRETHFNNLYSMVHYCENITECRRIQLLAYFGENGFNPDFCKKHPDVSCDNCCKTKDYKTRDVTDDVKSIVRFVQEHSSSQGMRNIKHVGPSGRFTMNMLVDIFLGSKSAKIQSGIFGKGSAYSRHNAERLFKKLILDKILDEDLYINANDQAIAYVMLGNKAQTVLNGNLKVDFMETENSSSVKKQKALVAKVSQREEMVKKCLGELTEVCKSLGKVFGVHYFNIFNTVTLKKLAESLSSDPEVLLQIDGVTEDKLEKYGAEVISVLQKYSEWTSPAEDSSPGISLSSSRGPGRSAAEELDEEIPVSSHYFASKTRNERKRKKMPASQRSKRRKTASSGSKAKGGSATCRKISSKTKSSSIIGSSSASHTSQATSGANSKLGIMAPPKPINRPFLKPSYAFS
UniProt Q13472: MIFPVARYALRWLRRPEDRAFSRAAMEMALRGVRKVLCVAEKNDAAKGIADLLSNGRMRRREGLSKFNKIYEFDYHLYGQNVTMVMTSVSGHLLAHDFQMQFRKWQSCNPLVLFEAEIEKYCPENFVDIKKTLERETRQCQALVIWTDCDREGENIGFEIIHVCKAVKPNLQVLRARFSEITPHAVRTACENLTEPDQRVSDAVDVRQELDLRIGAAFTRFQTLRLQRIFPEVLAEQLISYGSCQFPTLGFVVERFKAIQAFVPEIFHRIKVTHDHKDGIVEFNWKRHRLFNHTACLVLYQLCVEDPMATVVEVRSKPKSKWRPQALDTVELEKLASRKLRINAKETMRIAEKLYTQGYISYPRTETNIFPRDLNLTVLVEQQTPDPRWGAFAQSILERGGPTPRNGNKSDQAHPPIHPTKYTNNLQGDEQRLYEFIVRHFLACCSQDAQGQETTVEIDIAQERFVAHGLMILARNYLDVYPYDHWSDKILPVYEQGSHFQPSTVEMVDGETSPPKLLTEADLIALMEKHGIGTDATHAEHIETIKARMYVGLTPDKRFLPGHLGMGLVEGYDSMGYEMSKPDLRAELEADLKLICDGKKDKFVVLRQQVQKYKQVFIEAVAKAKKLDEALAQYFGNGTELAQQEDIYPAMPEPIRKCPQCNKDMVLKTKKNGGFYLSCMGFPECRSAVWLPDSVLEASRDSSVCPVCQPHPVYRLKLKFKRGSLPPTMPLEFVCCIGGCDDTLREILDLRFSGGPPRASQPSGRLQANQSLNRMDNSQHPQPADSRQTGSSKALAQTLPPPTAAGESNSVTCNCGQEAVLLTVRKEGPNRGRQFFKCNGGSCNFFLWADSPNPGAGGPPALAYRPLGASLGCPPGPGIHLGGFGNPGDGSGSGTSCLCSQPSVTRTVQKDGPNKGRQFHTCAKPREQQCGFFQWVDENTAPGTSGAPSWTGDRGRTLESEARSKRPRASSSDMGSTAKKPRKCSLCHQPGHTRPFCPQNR

Legend:
Experiment in all cases: EMSA
[1] = molecular target: T1, DNA2-D277A (Homo sapiens) (UniProt P51530); conditions: 10-20 nM DNA2-D277A alone, no ATP, no Mg2+; EMSA: 35 mM Tris-HCl pH 7.5, 1 mM DTT, 100 ng/μl BSA, 2 mM MgCl2, 100 mM NaCl, 25°C, 20 min, 5 nM DNA ends (Mg2+ and ATP omitted in Figure 3B); recombinant protein; protein details: C-terminal Flag (pFastBacHTB vector); label: 32P
T1 sequence (looked up, limits assumed): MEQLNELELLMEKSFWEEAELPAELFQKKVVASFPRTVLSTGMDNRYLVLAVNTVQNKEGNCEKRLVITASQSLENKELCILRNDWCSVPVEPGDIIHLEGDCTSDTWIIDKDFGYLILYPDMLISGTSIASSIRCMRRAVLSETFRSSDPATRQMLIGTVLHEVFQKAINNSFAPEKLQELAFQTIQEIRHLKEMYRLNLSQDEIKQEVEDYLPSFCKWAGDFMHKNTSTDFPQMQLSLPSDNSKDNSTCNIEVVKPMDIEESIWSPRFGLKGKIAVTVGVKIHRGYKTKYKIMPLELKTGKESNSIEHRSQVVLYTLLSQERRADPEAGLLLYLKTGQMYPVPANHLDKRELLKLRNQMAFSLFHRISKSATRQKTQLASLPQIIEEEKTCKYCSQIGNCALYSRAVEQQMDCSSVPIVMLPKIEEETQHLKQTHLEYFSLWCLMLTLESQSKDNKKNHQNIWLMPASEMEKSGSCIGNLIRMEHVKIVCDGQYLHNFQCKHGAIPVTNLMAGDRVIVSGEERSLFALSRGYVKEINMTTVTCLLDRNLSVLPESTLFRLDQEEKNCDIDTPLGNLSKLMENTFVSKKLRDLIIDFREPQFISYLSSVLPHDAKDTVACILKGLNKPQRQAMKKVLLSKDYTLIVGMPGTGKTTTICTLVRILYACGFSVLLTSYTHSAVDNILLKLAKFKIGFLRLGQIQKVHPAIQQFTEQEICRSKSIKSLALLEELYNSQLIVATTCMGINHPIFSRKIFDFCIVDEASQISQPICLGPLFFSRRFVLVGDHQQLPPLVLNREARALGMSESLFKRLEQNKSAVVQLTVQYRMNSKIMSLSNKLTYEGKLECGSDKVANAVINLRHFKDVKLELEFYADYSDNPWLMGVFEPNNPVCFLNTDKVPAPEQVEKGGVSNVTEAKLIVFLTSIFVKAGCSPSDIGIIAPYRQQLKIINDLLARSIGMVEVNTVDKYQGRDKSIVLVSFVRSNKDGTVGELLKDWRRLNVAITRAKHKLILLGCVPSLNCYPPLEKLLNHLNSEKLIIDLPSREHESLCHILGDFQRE

[2] = molecular target: BLM (Homo sapiens) (UniProt P54132); conditions: 7.5-15 nM BLM, no ATP, no Mg2+; EMSA: 35 mM Tris-HCl pH 7.5, 1 mM DTT, 100 ng/μl BSA, 2 mM MgCl2, 100 mM NaCl, 25°C, 20 min, 5 nM DNA ends (Mg2+ and ATP omitted in Figure 3B); recombinant protein; label: 32P
[3] = molecular target: Topo IIIα (Homo sapiens) (UniProt Q13472); conditions: 25-100 nM protein, streptavidin on both ends, shift only at highest concentration; 5' biotin on both strands (PSOL7475, PSOL6214), streptavidin bound; EMSA: 35 mM Tris-HCl pH 7.5, 1 mM DTT, 100 ng/μl BSA, 2 mM MgCl2, 100 mM NaCl, 25°C, 20 min, 5 nM DNA ends (Mg2+ and ATP omitted in Figure 3B); recombinant protein; label: 32P

Sequence | binding result [1] | binding result [2] | binding result [3]
TTGATAAGAGGTCATTTGAATTCATGGCTTAGAGCTTAATTGCTGAATCTGGTGCTGGGATCCAACATGTTTTAAATATG (double strand) [80-mer dsDNA] | no binding | binds | 
TTGATAAGAGGTCATTTGAATTCATGGCTTAGAGCTTAATTGCTGAATCTGGTGCTGGGATCCAACATGTTTTAAATATG (double strand) [80-mer dsDNA, both ends blocked by biotin-streptavidin] |  |  | binds more weakly

The exact form of at least one protein or probe is not confirmed. For part of these data: Negatives hold for the conditions tested. For part of these data: Protein sequences can lack the tags named with them. For part of these data: Weaker means in comparison with the reference protein, sequence or condition of that experiment. For part of these data: At least one verdict was read from the data and is not stated in words by the source.
